Measured values as given in patent US6632906B1, “Adhesives” (Strakan Limited, priority 1999, dated 2003).
Some of these results come from one statement about several compounds together. For at least one compound, name, drawing or mass did not settle the structure.

Assay: Stability of drug-containing patches, adhesive of the invention
Type: physicochemical
Details: immediately after preparation and after 6 days at 60° C.
Procedure: The mixed solutions were coated onto PET film and heated at 80° C. for 20 minutes. The content of drug was determined both immediately after preparation and after storage at 6 days at 60° C.

CN1C(C(=O)Nc2ccccn2)=C(O)c2ccccc2S1(=O)=O [Piroxicam]
content of drug in the patches, of the theoretical possible total: more than 90%

C=C1CC[C@H](O)C/C1=C/C=C1\CCC[C@]2(C)[C@@H]([C@H](C)/C=C/[C@H](C)C(C)C)CC[C@@H]12 [vitamin D2]
content of drug in the patches, of the theoretical possible total: more than 90%
